No constants are given. Whether binding was seen depends on the method and setting. In cells and extracts the contact can be indirect. Some binding calls cover weakened binding; strength is not graded here.
Target: T1, TRIM54 (endogenous) (human (endogenous in Hep3B)) (UniProt Q9BYV2)
T1 sequence: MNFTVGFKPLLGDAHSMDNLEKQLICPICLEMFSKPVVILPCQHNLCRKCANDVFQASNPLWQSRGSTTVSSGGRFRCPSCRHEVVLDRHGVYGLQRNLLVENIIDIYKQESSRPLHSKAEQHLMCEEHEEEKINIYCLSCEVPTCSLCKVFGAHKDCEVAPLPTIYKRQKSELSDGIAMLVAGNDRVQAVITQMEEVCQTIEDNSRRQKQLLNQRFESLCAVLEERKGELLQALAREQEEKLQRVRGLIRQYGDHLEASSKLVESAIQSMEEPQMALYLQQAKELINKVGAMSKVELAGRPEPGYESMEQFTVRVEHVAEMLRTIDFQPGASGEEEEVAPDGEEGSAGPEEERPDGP
Experiment: co-IP; endogenous TRIM54 and endogenous Axin1 in Hep3B cells; which protein was precipitated is not told

Chains of the proteins cited; added tags and fusions are not shown.
UniProt O15169: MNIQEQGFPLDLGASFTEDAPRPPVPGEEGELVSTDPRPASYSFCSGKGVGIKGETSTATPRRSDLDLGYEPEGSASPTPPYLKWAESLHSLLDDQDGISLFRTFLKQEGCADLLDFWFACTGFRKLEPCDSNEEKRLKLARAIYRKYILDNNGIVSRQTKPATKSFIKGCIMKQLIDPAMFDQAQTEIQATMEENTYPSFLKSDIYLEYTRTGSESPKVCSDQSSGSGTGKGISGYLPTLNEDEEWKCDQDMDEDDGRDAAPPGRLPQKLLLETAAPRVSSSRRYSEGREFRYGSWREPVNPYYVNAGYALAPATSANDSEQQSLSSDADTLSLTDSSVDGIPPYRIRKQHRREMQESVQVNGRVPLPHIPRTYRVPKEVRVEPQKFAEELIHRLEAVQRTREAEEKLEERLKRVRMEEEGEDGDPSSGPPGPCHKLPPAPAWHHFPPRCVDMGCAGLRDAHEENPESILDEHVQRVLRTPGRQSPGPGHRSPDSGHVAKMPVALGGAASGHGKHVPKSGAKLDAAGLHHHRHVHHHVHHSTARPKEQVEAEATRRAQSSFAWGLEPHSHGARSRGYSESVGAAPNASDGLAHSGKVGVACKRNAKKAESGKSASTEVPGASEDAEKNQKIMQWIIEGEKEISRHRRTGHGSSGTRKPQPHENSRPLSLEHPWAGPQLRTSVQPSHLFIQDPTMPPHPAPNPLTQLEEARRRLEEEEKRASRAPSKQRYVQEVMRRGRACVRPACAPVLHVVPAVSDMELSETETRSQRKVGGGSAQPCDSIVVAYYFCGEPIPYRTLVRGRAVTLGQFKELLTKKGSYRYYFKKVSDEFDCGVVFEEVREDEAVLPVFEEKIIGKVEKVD

## Axis inhibition protein 1 (Axin1) (from UniProt O15169 1-862)
  binding: binds

Reference: paper PMC8695909
